# Experimental data as given in the supplement of paper PMC8426693.
# The list shows a part of the results.
# Tested on: SARS-CoV-2 attenuator hairpin (att HP) RNA
# Experiment: NMR binding call after quantification (hit when 2 of 3 NMR criteria are met) (binary (1 = binding, 0 = not binding)); higher = binding
# Settings: RNA concentration 10 µM; fragment concentration 200 µM; 293 K
row,SMILES,NMR binding call
1,CC(=O)NCCN1CCCCCC1,0
2,COC(=O)CNC(=O)C1CCCCC1,0
3,Fc1cccc(CNCc2ccco2)c1,0
4,Clc1snnc1CN1CCOCC1,0
5,N#CCC(=O)N1CCC(C(N)=O)CC1,0
6,CCn1cc(CNC(=O)c2cccnc2)cn1,0
7,CC(=O)Nc1ccc(Nc2ccccc2)cc1,0
8,CCOc1ccc(CC(=O)O)cc1,0
9,Cl.NC1CCCN(C(=O)CCC(F)(F)F)C1 (stereo not given),0
10,Cn1ccc(NCc2ccccc2)n1,0
11,CS(=O)(=O)NC1(C(=O)O)CCCCC1,0
12,CN(CCO)S(=O)(=O)c1ccc(N)cc1,0
13,O=C(CC1CCCCC1)Nn1cnnc1,0
14,CCN(CCO)c1ccc(N)cc1,0
15,O=C(NCC1CC1)Nc1ccc2c(c1)CCO2,0
16,OC1CCN(Cc2ccsc2)CC1,0
17,O=C(Nc1nc2ccccc2[nH]1)C1CCCCC1,0
18,Cc1ccccc1CC(N)=O,0
19,CC(=O)NC(C)(C(=O)O)C1CC1 (stereo not given),0
20,CC(=O)Nc1ncc(Cc2cccc(C)c2)s1,0

row,SMILES,NMR binding call
1,COc1cccc(C(=O)Nc2ccccc2F)c1,0
2,CN(CCc1ccccn1)C(=O)c1ccccc1,0
3,COc1ccc(C(N)c2ccccc2)cc1.Cl (stereo not given),0
4,c1ccc(-c2ccc(-n3cnnn3)cc2)cc1,0
5,NC(=O)c1cnc(C(F)(F)F)nc1,0
6,CC(=O)NCc1cncs1,0
7,COc1ccc(NC(=O)CN)cc1,0
8,Cc1cc(C2CCCN2S(C)(=O)=O)no1 (stereo not given),0
9,COC(=O)C1CCN(CC(N)=O)CC1,0
10,CC(NS(C)(=O)=O)c1ccccc1Cl (stereo not given),0
11,NC(=O)c1ccc(NC(=O)C2CCCO2)cc1 (stereo not given),0
12,COc1ccc(CNC2CCCC2)cc1,0
13,OCCN1CCOCC1,0
14,CNC1CCN(c2ccccc2F)C1=O.Cl (stereo not given),0
15,CC1CCN(CCN)CC1,0
16,CCC(CO)NC(=O)Nc1ccc(Cl)cc1 (stereo not given),0
17,O=C(Nc1nnc(-c2ccco2)s1)C1CC1,0
18,O=C(COc1ccccc1)NC1CCCCC1,0
19,CN(C(=O)C1CC1(C)C)c1cccnc1 (stereo not given),0
20,CCC(=O)Nc1ccc2[nH]c(=O)[nH]c2c1,0

# 2 compounds drawn at random from those above:
row,SMILES,NMR binding call
4,Clc1snnc1CN1CCOCC1,0
11,CS(=O)(=O)NC1(C(=O)O)CCCCC1,0
